# Measurements reported in the supplement of paper PMC8256030.
# Values joined by “and” are separate entries in the source; they are usually repeats but may differ in a detail not shown here. Equal values may be shown once. The list shows a part of the results. Repeats in this data set agree poorly, so a single value says little.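 HEK293T cells were given each compound shortly before transfection with a reporter in which red mCherry is followed by the SARS-CoV-2 frameshift element and then GFP in the −1 frame, so GFP appears only after frameshifting.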
# System: HEK293T
# Test: percent viability (nuclei count) relative to control; higher = more viable cells
# Conditions: 10 µM; 24 h
row,SMILES,percent viability
1,O=C1[C@H](CC[C@H](O)c2ccc(F)cc2)[C@@H](c2ccc(O)cc2)N1c1ccc(F)cc1 [ezetimibe],162%
2,Cc1oc2nc3c(c(NC(=O)CN4CCCC4=O)c2c1C)CCCC3 [coluracetam],227%
3,CO[C@@H]1[C@@H](O[C@@H]2O[C@H](C)[C@@H](O[C@H]3C[C@@](C)(O)[C@@H](OC(=O)CC(C)C)[C@H](C)O3)[C@H](N(C)C)[C@H]2O)[C@@H](CC=O)C[C@@H](C)[C@@H](O)/C=C/C=C/C[C@@H](C)OC(=O)C[C@H]1OC(C)=O [Josacine],149%
4,CCC[C@@]1(CCc2ccccc2)CC(O)=C([C@H](CC)c2cccc(NS(=O)(=O)c3ccc(C(F)(F)F)cn3)c2)C(=O)O1 [tipranavir],192%
5,CCCCC(CC)COC(=O)C=Cc1ccc(OC)cc1 (centres undefined) [octinoxate],65.7%
6,CN1CCC(=C2c3ccccc3CCc3cccnc32)CC1 [azatadine],263%
7,CCS(=O)(=O)CCn1c([N+](=O)[O-])cnc1C [tinidazole],177% and 395%
8,CC1=CC(=O)c2ccccc2C1=O,312%
9,Cc1ccc(S(=O)(=O)NC(=O)NC2CCCC2)cc1 [tolpentamide],185%
10,CC(C)CC1Nc2cc(Cl)c(S(N)(=O)=O)cc2S(=O)(=O)N1 (centres undefined) [butizide],142%
11,COc1cc(/C=C/C(N)=O)cc(OC)c1OC,110%
12,S=C1SCN(Cc2ccccc2)CN1Cc1ccccc1,56.2%
13,Nc1nc(O)c2ncn(CCC(CO)CO)c2n1,336%
14,C[C@@H]1O[C@@H](OC[C@H]2O[C@@H](Oc3c(-c4ccc(OCCO)c(OCCO)c4)oc4cc(OCCO)cc(O)c4c3=O)[C@H](O)[C@@H](O)[C@@H]2O)[C@H](O)[C@H](O)[C@H]1O [troxerutin],202%

# 2 compounds drawn at random from the list so far:
row,SMILES,percent viability
11,COc1cc(/C=C/C(N)=O)cc(OC)c1OC,110%
12,S=C1SCN(Cc2ccccc2)CN1Cc1ccccc1,56.2%
